Measurements reported in patent US20100310528.
The exact form of at least one protein or probe is not confirmed. Protein sequences can lack the tags named with them.

System: T1, R391 integrase (IntR391), native (ICE R391 (IncJ element))
T1 sequence (limits assumed): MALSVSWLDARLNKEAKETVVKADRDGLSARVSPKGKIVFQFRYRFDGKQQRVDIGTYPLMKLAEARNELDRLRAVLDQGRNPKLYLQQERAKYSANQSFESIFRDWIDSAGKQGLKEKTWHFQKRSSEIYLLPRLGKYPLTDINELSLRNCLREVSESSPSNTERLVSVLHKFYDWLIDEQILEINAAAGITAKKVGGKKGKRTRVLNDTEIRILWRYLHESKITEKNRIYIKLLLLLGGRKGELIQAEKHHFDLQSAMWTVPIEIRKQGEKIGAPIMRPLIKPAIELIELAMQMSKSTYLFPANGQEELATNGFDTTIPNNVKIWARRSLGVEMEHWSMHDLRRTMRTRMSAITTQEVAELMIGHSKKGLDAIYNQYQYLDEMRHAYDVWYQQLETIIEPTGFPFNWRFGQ
Assay: activity in cells
Details: integration of pBT-attP (and pSC101ts-attP) into prfC attB in E. coli after IPTG induction; junction PCR and sequencing; none without integrase; protein in cells; only the site is given

For “ATAAGCGAAGGACCTTTGCTATCATCTCTCACCCTGATGCCGCCCAGCCT (double strand) [attP R391]”, the “activity on this sequence” value was “active”.
